Assay [1] concerns the target human guanylate kinase (human) (UniProt Q16774). As to the kind of experiment: SEC; unliganded hGMPK; elution profile compared with standard proteins; both purified.
The target is the same in assay [2]. As to the kind of experiment: SAXS; synchrotron SAXS (cSAXS beamline X12SA, SLS); forward scattering I(0) compared between the open form (no ligand) and the completely closed forms (GMP + AMP-PNP, Ap5G, GMP + ADP); both purified.

By UniProt entry, the sequences of proteins in these tests, tags left out.
UniProt Q16774: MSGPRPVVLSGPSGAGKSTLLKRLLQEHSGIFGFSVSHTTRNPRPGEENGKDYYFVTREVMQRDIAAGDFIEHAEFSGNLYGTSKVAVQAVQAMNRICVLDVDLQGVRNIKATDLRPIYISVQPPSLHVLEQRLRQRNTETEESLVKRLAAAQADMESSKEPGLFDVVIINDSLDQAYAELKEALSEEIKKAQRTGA

These are yes or no findings as the source states them, for the method shown.

1 substance from article PMC4698301 can be followed below.

Turning to “human guanylate kinase (from UniProt Q16774 1-197) (enzyme)”, the binding result in assay [1] and in assay [2] was “no binding” throughout.
